Several values for one entry are separate records, joined by “and”; a condition that tells them apart may be missing. Equal values may be shown once. Hit rate of the full screen: of about 68,000 compounds, about 60 (0.09%) were called active. Inconclusive means that the source gave no clear call. Such entries were picked first, then a sample of the others. Calls come from the whole dose curve; as a rule, active = well fitted curve in the direction sought with a large enough effect; inconclusive = small, poorly fitted or top-dose-only effect; inactive = flat fitted curve, though single readings scatter. Where the call is inconclusive, the potency comes from a doubtful curve fit.
Assay: qHTS Assay for Epigenetic Modulators; for GFP derepression (activation): % of control where 0% means no effect
Conditions: mouse C127i GFP locus derepression, cytometry, 30 h; series mostly up to 46.1 µM
How it was run: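 Derepression screen: silenced CMV-GFP reporter in murine C127i cells, 30 h compound incubation at 37 C, washed cells imaged by laser-scanning cytometer to enumerate GFP-expressing objects of 20 to 120 um.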

SMILES | Potency | GFP derepression (activation)
O=C(O)[C@H]1CCCN(CCC=C(c2ccccc2)c2ccccc2)C1 | inactive | –
CC(C)OC(=O)c1cn(-c2ccccc2)nc1-c1ccco1 | inconclusive: 31.6 µM [single point] | –
Cc1cc(NC(=O)c2ccc(NC(=O)c3cccs3)cc2)no1 | inconclusive: 25.1 µM [single point] | –
CC(C)COc1ccc(C(=O)CCN2CCCCC2)cc1 | inconclusive: 31.6 µM [single point] | –
Cc1occc1C(=O)Nc1cc(=O)n(C)c(=O)n1C | inactive | –
CN1CCc2nc(SCCOc3ccccc3)c(C#N)cc2C1 | inconclusive: 31.6 µM [single point] | –
C/C(=C\c1ccc(Cl)cc1)C(C)(C)C(=O)O | – | inactive: 0% [at 9.22 µM]
COc1ccc(N=c2oc3cc(O)ccc3cc2C(=O)NCC2CCCO2)c(OC)c1 (configuration not stated) | inconclusive: 31.6 µM [single point] | –
CCN(CCCc1ccccc1)CCCc1ccccc1 | inconclusive: 5.01 µM [single point] | –
COCc1nnc(NC(=O)c2cc(Cl)ccc2OC)s1 | inconclusive: 5.01 µM [single point] | –
c1ccc2[nH]c(NC3=NCCC3)nc2c1 | inconclusive: 31.6 µM [single point] | –
c1ccc2sc(-c3ccc4c(c3)OCO4)nc2c1 | inactive | –
COc1cc(-c2nn3c(-c4cccnc4)nnc3s2)cc(OC)c1OC | inactive | –
CCc1cccc(NC(=O)CS(=O)Cc2nc(-c3ccc(C)cc3)oc2C)c1 (configuration not stated) | inactive | –
Cc1cc(OCC(=O)NCCN2CCOCC2)ccc1Br | inconclusive: 31.6 µM [single point] | –
Cc1ccc(-c2cc(C(=O)NC3=NCCS3)c3cc(Br)ccc3n2)o1 | inconclusive: 31.6 µM [single point] | –
CN1CCN(c2ccc(Cl)cc2NS(=O)(=O)c2ccccc2Cl)CC1 | inconclusive: 31.6 µM [single point] | –
O=S(=O)(c1ccccc1)N1CCN(CC(O)COc2ccc3c(c2)CCC3)CC1 (configuration not stated) | inconclusive: 25.1 µM [single point] | –
O=C(NCCN1CCOCC1)c1cc(-c2ccc(Cl)cc2)on1 | inactive | –
CCC(=O)Nc1nonc1-c1nc2ccccc2n1Cc1ccccc1 | inactive | –
CCOc1ccc(Nc2cc(C)nc(-n3nc(C)cc3C)n2)cc1 | active: 15.8 µM | –
S=C1SCN(Cc2ccccn2)CN1Cc1ccco1 | inconclusive: 5.01 µM [single point] | –
O=C(Nc1ccc2c(c1)Cc1ccccc1-2)[C@@H]1[C@H](C(=O)O)[C@]2(Cl)C(Cl)=C(Cl)[C@@]1(Cl)C2(Cl)Cl | – | inactive: 2.2% [at 9.22 µM]
CCc1nc(Nc2ccc3nccnc3c2)c2oc3ccccc3c2n1 | inconclusive: 15.8 µM [single point] | –
CC1=CC(C)(C)Nc2ccc(OC(=O)c3ccco3)cc21 | inconclusive: 5.01 µM [single point] | –
Nc1cccc2nsnc12 | inconclusive: 5.01 µM [single point] | –

Shown as a markdown table: five of the compounds above

| SMILES | Potency | GFP derepression (activation) |
| --- | --- | --- |
| CN1CCN(c2ccc(Cl)cc2NS(=O)(=O)c2ccccc2Cl)CC1 | inconclusive: 31.6 µM [single point] | – |
| O=S(=O)(c1ccccc1)N1CCN(CC(O)COc2ccc3c(c2)CCC3)CC1 (configuration not stated) | inconclusive: 25.1 µM [single point] | – |
| O=C(NCCN1CCOCC1)c1cc(-c2ccc(Cl)cc2)on1 | inactive | – |
| CCC(=O)Nc1nonc1-c1nc2ccccc2n1Cc1ccccc1 | inactive | – |
| CCOc1ccc(Nc2cc(C)nc(-n3nc(C)cc3C)n2)cc1 | active: 15.8 µM | – |

Next part:

SMILES | Potency | GFP derepression (activation)
CCCn1c(=N)n(CC(=O)C(C)(C)C)c2ccccc21 | inactive | –
COc1ccc(-n2c(=O)c(-c3cccs3)nc3cnc(Nc4cccc(OC)c4)nc32)cc1 | active: 3.16 µM | –
O=C(CSc1cccc2cccnc12)N1CCCC1 | active: 0.631 µM | –
COc1ccc(OC)c(N/C(C)=C/C(=O)c2ccc(C)o2)c1 | inconclusive: 5.01 µM [single point] | –
O=C(Nc1ccc2nc(-c3ccco3)c(-c3ccco3)nc2c1)N1CCCCCC1 | inactive | –
COc1ccc(N2CCN(C(=O)C3CCC(Cn4c(=S)[nH]c5ccccc5c4=O)CC3)CC2)cc1 (configuration not stated) | inconclusive: 25.1 µM [single point] | –
C(=N\n1cnnc1)/c1ccc2ncccc2c1 | inactive | –
CC(C)OC(=O)CSc1nnc(-c2ccc(Cl)cc2)n1N | inconclusive: 20 µM [single point] | –
CCNc1nc(SC(C)C(=O)Nc2ccccc2)nc(N2CCOCC2)n1 (configuration not stated) | inactive | –
N=c1n(Cc2ccccc2)c2ccccc2n1CC(O)c1ccco1 (configuration not stated) | inconclusive: 31.6 µM [single point] | –
CN1CCN(S(=O)(=O)c2ccc(N3CCN(S(=O)(=O)/C=C/c4ccccc4)CC3)nc2)CC1 | inconclusive: 3.98 µM [single point] | –
CCOC(=O)N1CCC(NC(=O)Cn2ncc3c4ccccc4n(C)c3c2=O)CC1 | inconclusive: 31.6 µM [single point] | –
O=C1C2C3C=CC(C3)C2C(=O)N1c1cccc(-c2nc3ccccc3o2)c1 (configuration not stated) | inconclusive: 10 µM [single point] | –
CCc1cccc(NC(=O)CN2C(=O)NC3(CCCCCCC3)C2=O)c1 | inactive | –
Nc1c(S(=O)(=O)O)cc(Nc2cccc(S(N)(=O)=O)c2)c2c1C(=O)c1ccccc1C2=O | – | inactive: -1.1% [at 9.22 µM]
O=C(Nc1nc2ccccc2n1CCOc1ccccc1)c1ccco1 | inconclusive: 31.6 µM [single point] | –
CC[C@@H]1CC(=O)N(SC[C@H](N)C(=O)O)C1=O | – | inactive: 4.5% [at 9.22 µM]
C[C@H](NC[C@H](O)CP(=O)(O)Cc1ccccc1)c1ccc(Cl)c(Cl)c1 | inconclusive: 15.8 µM [single point] | –
O=C(c1ccco1)n1nc(NCc2ccccc2)nc1NCc1ccccc1 | inconclusive: 3.98 µM [single point] | –
Cc1cccc(NS(=O)(=O)c2ccc(C)c(C(=O)OCC(=O)Nc3cc(C)on3)c2)c1 | inactive | –
CSC1=C(C#N)C(C)CC(=O)N1 (configuration not stated) | inconclusive: 5.01 µM [single point] | –
Cc1cccc(C(=O)O)c1C[C@H]1NCC[C@H]2c3ccccc3N[C@@H]12 | – | inactive: -5.7% [at 9.22 µM]
CCOC(=O)N1CCC(n2c(SCC(=O)NCc3ccccc3)nc3ccccc3c2=O)CC1 | inactive | –
CCN(CC)CCNC(=O)CCCCn1c(=S)[nH]c2c([nH]c3ccc(OC)cc32)c1=O | inactive | –
CN1CCN(C(=O)CSc2nc(-c3cccs3)cc(-c3cccs3)c2C#N)CC1 | inactive | –
CCC(=O)Nc1ccc(N2CCN(C(=O)c3ccccc3C)CC2)cc1 | inconclusive: 31.6 µM [single point] | –

SMILES | Potency | GFP derepression (activation)
COc1ccc(CNc2nc(-c3ccccc3OC)nc3ccccc23)c(OC)c1 | inconclusive: 1.26 µM [single point] | –
COc1cccc(C2/C(=C(\O)c3ccc4c(c3)OCCO4)C(=O)C(=O)N2CCN(C)C)c1 (configuration not stated) | inconclusive: 3.16 µM [single point] | –
C[C@]12CC[C@H]3[C@@H](CCC4=CC(=O)CC[C@@]43C)[C@@H]1CC[C@@H]2C(=O)CO | inconclusive: 5.01 µM [single point] | –
O=C(NCc1ccc2c(c1)OCO2)c1ccc2snnc2c1 | inactive | –
CCOC(=O)c1c(-c2ccc(C)o2)csc1NC(=O)CSc1nnnn1-c1ccccc1 | inconclusive: 31.6 µM [single point] | –
Cc1ccc(-n2nc(-c3ccco3)cc2C(=O)NCc2cccnc2)cc1 | inconclusive: 31.6 µM [single point] | –
CCCS(=O)(=O)c1nnnn1-c1cccc(OC)c1 | inconclusive: 5.01 µM [single point] | –
CCCCCCc1cc2cc(-c3nnc(-c4ccccc4O)o3)c(=O)oc2cc1O | inconclusive: 5.01 µM [single point] | –
Cc1ccc(-n2c(N)c(-c3nc4ccccc4n3C)sc2=S)cc1 | inconclusive: 31.6 µM [single point] | –
Cc1nn(Cc2ccc(Cl)cc2)c(C)c1NC(=O)c1cc(-c2ccc3c(c2)OCO3)on1 | inconclusive: 31.6 µM [single point] | –
Cc1nn(-c2ccccc2)c(C)c1C(=O)Nc1nnc(-c2ccco2)o1 | inconclusive: 31.6 µM [single point] | –
CSc1nc(N)c(C#N)c(-c2ccc(Cl)cc2)c1C#N | inconclusive: 5.01 µM [single point] | –
CCSc1nnc(NC(=O)c2ccccc2)s1 | inactive | –
COc1ccc(-c2ccc(-c3noc(-c4ccccc4OC)n3)c(OC)n2)cc1 | inconclusive: 31.6 µM [single point] | –
Brc1ccc(Nc2c3c(nc4ncnn24)CCC3)cc1 | inconclusive: 5.01 µM [single point] | –
C[N+](C)(C)CCC(=O)c1cccc2ccccc12 | inconclusive: 12.6 µM [single point] | –
CCOC(=O)c1c(C)oc2c1c(C(c1ccncc1)N1CCOCC1)c(O)c1ccccc12 (configuration not stated) | inconclusive: 31.6 µM [single point] | –
O=C(Nc1nc2c(s1)CCCC2)c1cccs1 | inconclusive: 25.1 µM [single point] | –
CCCCOc1ccc(OCCCC)c2c1NC1(N2)C(=O)N(C(C)=O)c2ccccc21 | inconclusive: 31.6 µM [single point] | –
CN1CCc2c(sc3nc(SCC(=O)N4CCOCC4)nc(N)c23)C1 | inconclusive: 31.6 µM [single point] | –
CCn1c(COc2cccc(OC)c2)nnc1SCC(=O)Nc1ccccc1C(=O)OC | inactive | –
Cc1ccc(NC(=O)CS(=O)CC(=O)NCC2OCCc3ccccc32)c(C)c1 (configuration not stated) | inconclusive: 5.01 µM [single point] | –
CCCCNC(=O)C(NS(=O)(=O)c1cccc2nsnc12)c1ccccc1 (configuration not stated) | inconclusive: 31.6 µM [single point] | –
N=c1c(C(=O)NCc2ccco2)cc2c(=O)n3ccccc3nc2n1Cc1ccc(Cl)cc1 | inconclusive: 31.6 µM [single point] | –

From PubChem BioAssay AID597 (National Center for Advancing Translational Sciences (NCATS), 2007)
